Assay results from US20150099883A1, “ARYLOXYUREA COMPOUND AND PEST CONTROL AGENT” (NIPPON SODA CO., LTD., priority 2012, published 2015).
Some entries share one result that the patent states for a list of compounds.

What was measured:
Assay type in all cases: in vivo
[1] = tested on: organic phosphorous-resistant adult female Tetranychus urticae; assay: Efficacy test against Tetranychus urticae (spray on kidney bean plant); conditions: 125 ppm emulsion sprayed, 25° C., humidity 65%; for insect mortality rate after 3 days: 3 days after spraying; for insect mortality rate after 10 days: after 10 days (so in the source)
[2] = tested on: adult female Panonychus citri from Kanagawa Prefecture; assay: Efficacy test against Panonychus citri (Kanagawa Prefecture, mandarin orange leaf); conditions: 125 ppm emulsion sprayed; for insect mortality rate after 3 days: 3 days after spraying; for insect mortality rate after 10 days: 10 days after spraying
[3] = tested on: acaricide-resistant adult female Panonychus citri from Wakayama Prefecture; assay: Efficacy test against acaricide-resistant Panonychus citri (Wakayama Prefecture); conditions: 125 ppm emulsion sprayed; for insect mortality rate after 3 days: 3 days after spraying; for insect mortality rate after 10 days: 10 days after spraying
[4] = tested on: adult female Tetranychus kanzawai from Okayama Prefecture; assay: Efficacy test against Tetranychus kanzawai (spray on kidney bean plant); conditions: 125 ppm emulsion sprayed; for insect mortality rate after 3 days: 3 days after spraying; for insect mortality rate after 14 days: 14 days after spraying
Procedure: Ten adult female Tetranychus kanzawai acarus from Okayama Prefecture were inoculated onto the first leaves of a kidney bean plant planted in a No. 3 pot 7 to 10 days after germination. Next, an emulsion was prepared having the formula indicated in the aforementioned Preparation example 2. This emulsion was diluted with water to a compound concentration of 500 ppm or 125 ppm after which the diluted liquids were sprayed onto the kidney bean plant. The kidney bean plant was then placed in a temperature-controlled room at a temperature of 25° C. and humidity of 65%. The life and death of the adult insects were investigated 3 days after the spraying. In addition, the development from eggs laid to adult was investigated 14 days after the spraying.
The aforementioned test was carried out on the emulsion containing the Compound No. 2-1 at 500 ppm. As a result, the insect mortality rates after 3 days and 14 days for the compound were 90% or higher.

CCN(Oc1ccc2ncsc2c1)C(=O)NC(C)(C)c1ncccn1 [1-3]
≥ 90%: insect mortality rate after 3 days [1] | insect mortality rate after 10 days [1] | insect mortality rate after 3 days [2] | insect mortality rate after 10 days [2] | insect mortality rate after 3 days [3] | insect mortality rate after 10 days [3] | insect mortality rate after 3 days [4] | insect mortality rate after 14 days [4]

CCN(Oc1ccc2nc(C)sc2c1)C(=O)NC(C)(C)c1ccccn1 [1-4]
≥ 90%: insect mortality rate after 3 days [1] | insect mortality rate after 10 days [1] | insect mortality rate after 3 days [2] | insect mortality rate after 10 days [2] | insect mortality rate after 3 days [4] | insect mortality rate after 14 days [4]

CCN(Oc1ccc2ncsc2c1)C(=O)NC(C)(C)C(=O)NCC(F)(F)F [1-5]
≥ 90%: insect mortality rate after 3 days [1] | insect mortality rate after 10 days [1] | insect mortality rate after 3 days [2] | insect mortality rate after 10 days [2]

CCN(Oc1ccc2nc(C#N)sc2c1)C(=O)NC(C)(C)c1ccccn1 [1-7]
≥ 90%: insect mortality rate after 3 days [1] | insect mortality rate after 10 days [1] | insect mortality rate after 3 days [4] | insect mortality rate after 14 days [4]

CCN(Oc1ccc2nc(C(F)(F)F)sc2c1)C(=O)NC(C)(C)c1ccccn1 [1-8]
≥ 90%: insect mortality rate after 3 days [1] | insect mortality rate after 10 days [1] | insect mortality rate after 3 days [2] | insect mortality rate after 10 days [2] | insect mortality rate after 3 days [3] | insect mortality rate after 10 days [3] | insect mortality rate after 3 days [4] | insect mortality rate after 14 days [4]

CCN(Oc1cc2sc(C(F)(F)F)nc2cn1)C(=O)NC(C)(C)c1ncccn1 [1-12]
≥ 90%: insect mortality rate after 3 days [1] | insect mortality rate after 10 days [1]

CCN(Oc1ccc2ncsc2c1)C(=O)NC(C)(C)c1cc(-c2ccccc2)ccn1 [1-13]
≥ 90%: insect mortality rate after 3 days [1] | insect mortality rate after 10 days [1] | insect mortality rate after 3 days [2] | insect mortality rate after 10 days [2] | insect mortality rate after 3 days [3] | insect mortality rate after 10 days [3] | insect mortality rate after 3 days [4] | insect mortality rate after 14 days [4]

CCN(Oc1cc(Br)c2ncsc2c1)C(=O)NC(C)(C)c1ccccn1 [1-14]
≥ 90%: insect mortality rate after 3 days [4] | insect mortality rate after 14 days [4]

CCN(Oc1cc(Cl)c(Br)c(Cl)c1)C(=O)NC(C)(C)c1cc(S(C)(=O)=O)cc[n+]1[O-] [3-4]
≥ 90%: insect mortality rate after 3 days [4] | insect mortality rate after 14 days [4]

CCN(Oc1cc(S(C)(=O)=O)cc(Cl)n1)C(=O)NC(C)(C)c1cc(S(C)(=O)=O)ccn1 [3-49]
≥ 90%: insect mortality rate after 3 days [1] | insect mortality rate after 10 days [1]

CCN(Oc1cc(Cl)nc(S(C)(=O)=O)c1)C(=O)NC(C)(C)c1cc(S(C)(=O)=O)ccn1 [3-54]
≥ 90%: insect mortality rate after 3 days [1] | insect mortality rate after 10 days [1]

CCCCS(=O)(=O)c1ccnc(C(C)(C)NC(=O)N(CC)Oc2cc(Cl)nc(Br)c2)c1 [3-78]
≥ 90%: insect mortality rate after 3 days [1] | insect mortality rate after 10 days [1]

CCN(Oc1cc(C(F)F)cc(Cl)n1)C(=O)NC(C)(C)c1cc(SC)ccn1 [3-84]
≥ 90%: insect mortality rate after 3 days [4] | insect mortality rate after 14 days [4]

CCN(Oc1cc(C(F)F)cc(Cl)n1)C(=O)NC(C)(C)c1cc(S(C)(=O)=O)ccn1 [3-85]
≥ 90%: insect mortality rate after 3 days [4] | insect mortality rate after 14 days [4]

CCN(Oc1cc(C(F)F)cc(Cl)n1)C(=O)NC(C)(C)c1cc([S+](C)[O-])ccn1 (centres unmarked) [3-86]
≥ 90%: insect mortality rate after 3 days [4] | insect mortality rate after 14 days [4]

CCN(Oc1cc(C(F)(F)F)cc(Cl)n1)C(=O)NC(C)(C)c1nccc(N(C)NC)n1 [4-8]
≥ 90%: insect mortality rate after 3 days [4] | insect mortality rate after 14 days [4]

CCN(Oc1ccc2ncsc2c1)C(=O)N=S(C)(=O)c1ccccc1 (centres unmarked) [Compound No. 2-1]
≥ 90%: insect mortality rate after 3 days [1] | insect mortality rate after 10 days [1] | insect mortality rate after 3 days [2] | insect mortality rate after 10 days [2]
